Drawing on article PMC5706420, this text covers binding for 5 molecules.

Conditions in all cases: remark: other sources report otherwise
The target in assay [1] is T1, Sirt1WT-6xHis (human), Q96EB6.
T1 chain: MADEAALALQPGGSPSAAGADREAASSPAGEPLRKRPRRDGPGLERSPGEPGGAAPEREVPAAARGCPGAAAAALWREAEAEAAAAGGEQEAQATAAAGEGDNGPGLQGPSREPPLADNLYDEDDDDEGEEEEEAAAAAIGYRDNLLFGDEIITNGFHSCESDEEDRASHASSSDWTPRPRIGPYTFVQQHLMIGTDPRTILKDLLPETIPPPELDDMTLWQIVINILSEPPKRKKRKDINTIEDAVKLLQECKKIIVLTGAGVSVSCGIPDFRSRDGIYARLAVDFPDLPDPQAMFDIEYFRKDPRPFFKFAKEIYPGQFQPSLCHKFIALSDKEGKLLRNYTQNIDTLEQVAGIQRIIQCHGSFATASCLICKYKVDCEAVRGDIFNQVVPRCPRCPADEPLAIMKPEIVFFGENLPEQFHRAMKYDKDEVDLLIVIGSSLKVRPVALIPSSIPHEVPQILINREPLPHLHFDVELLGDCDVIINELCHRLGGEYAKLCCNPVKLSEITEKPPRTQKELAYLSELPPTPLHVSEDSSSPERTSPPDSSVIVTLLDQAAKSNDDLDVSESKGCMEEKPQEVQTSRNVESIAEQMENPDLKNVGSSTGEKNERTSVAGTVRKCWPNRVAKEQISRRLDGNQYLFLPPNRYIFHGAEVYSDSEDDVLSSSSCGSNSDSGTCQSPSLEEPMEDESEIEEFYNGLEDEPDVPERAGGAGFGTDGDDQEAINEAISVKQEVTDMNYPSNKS
Briefly: pull-down; 4 μg GST-fusion protein mixed with 20 μl (10-20 μg) resin-coupled Sirt1WT-6xHis in 400 μl 50 mM HEPES pH 7.2, 300 mM NaCl, 1% Triton X-100, 10% glycerol, BSA 0.2 mg/ml; 2 h at 4 °C; Western blot; both purified. On the technique in general: In western blotting, separated proteins are transferred to a membrane and probed.

Assay [2] has the same target. Briefly: pull-down; Flag-Smad2 affinity-purified from transfected HEK293T cells (FLAG peptide elution) added to resin-coupled Sirt1-6xHis or its 6xHis fragments; 2 h at 4 °C; Western blot; both purified.
The target of assay [3] is Smad2 bait fusion in pSos (Cyto Trap two-hybrid) (human), Q15796. Briefly: two-hybrid; Cyto Trap yeast two-hybrid in S. cerevisiae strain Cdc25H; Smad2 in pSos as bait, targets (Smad4 or human lung cDNA library) in pMyr; growth at 37 °C as selective condition.
Assay [4] concerns the target Flag-Smad2 (human), Q15796. Briefly: co-IP; Hep3B cells co-transfected with HA-Sirt1 (wild type or H363Y) and Flag-Smad2; TSA for 8 h followed by TGFβ; Smad2 immunoprecipitated from total extract, Western blot.
Assay [5] has as its target Flag-Smad2 (human), Q15796. Nature of the assay: co-IP; HEK293T cells co-transfected with HA-Sirt1 and Flag-Smad2 (wild type or mutants); SB-431542, with TSA or DMSO, then with or without TGFβ for 1 h; Flag immunoprecipitation, Western blot.

Results are given in words; binding and its absence hold for the method and conditions named. For part of these data: Binding seen in cells or lysates may run through a third protein. Some entries that bind do so weakly or less than the wild type. Tags and fused reporters may be left off the sequences shown.

B1: full length GST-Smad2, Q15796 1-467 (protein)
chain: MSSILPFTPPVVKRLLGWKKSAGGSGGAGGGEQNGQEEKWCEKAVKSLVKKLKKTGRLDELEKAITTQNCNTKCVTIPSTCSEIWGLSTPNTIDQWDTTGLYSFSEQTRSLDGRLQVSHRKGLPHVIYCRLWRWPDLHSHHELKAIENCEYAFNLKKDEVCVNPYHYQRVETPVLPPVLVPRHTEILTELPPLDDYTHSIPENTNFPAGIEPQSNYIPETPPPGYISEDGETSDQQLNQSMDTGSPAELSPTTLSPVNHSLDLQPVTYSEPAFWCSIAYYELNQRVGETFHASQPSLTVDGFTDPSNSERFCLGLLSNVNRNATVEMTRRHIGRGVRLYYIGGEVFAECLSDSAIFVQSPNCNQRYGWHPATVCKIPPGCNLKIFNNQEFAALLAQSVNQGFEAVYQLTRMCTIRMSFVKGWGAEYRRQTVTSTPCWIELHLNGPLQWLDKVLTQMGSPSVRCSSMS
On to B1, for which the binding result in assay [1] is given as “binds”.

B2: Flag-Smad2, Q15796 1-467 (protein)
chain: MSSILPFTPPVVKRLLGWKKSAGGSGGAGGGEQNGQEEKWCEKAVKSLVKKLKKTGRLDELEKAITTQNCNTKCVTIPSTCSEIWGLSTPNTIDQWDTTGLYSFSEQTRSLDGRLQVSHRKGLPHVIYCRLWRWPDLHSHHELKAIENCEYAFNLKKDEVCVNPYHYQRVETPVLPPVLVPRHTEILTELPPLDDYTHSIPENTNFPAGIEPQSNYIPETPPPGYISEDGETSDQQLNQSMDTGSPAELSPTTLSPVNHSLDLQPVTYSEPAFWCSIAYYELNQRVGETFHASQPSLTVDGFTDPSNSERFCLGLLSNVNRNATVEMTRRHIGRGVRLYYIGGEVFAECLSDSAIFVQSPNCNQRYGWHPATVCKIPPGCNLKIFNNQEFAALLAQSVNQGFEAVYQLTRMCTIRMSFVKGWGAEYRRQTVTSTPCWIELHLNGPLQWLDKVLTQMGSPSVRCSSMS
On to B2, for which the binding entry in assay [2] is recorded as “binds”.

B3: Smad4-pMyr target fusion product, Q13485 1-552 (protein)
chain: MDNMSITNTPTSNDACLSIVHSLMCHRQGGESETFAKRAIESLVKKLKEKKDELDSLITAITTNGAHPSKCVTIQRTLDGRLQVAGRKGFPHVIYARLWRWPDLHKNELKHVKYCQYAFDLKCDSVCVNPYHYERVVSPGIDLSGLTLQSNAPSSMMVKDEYVHDFEGQPSLSTEGHSIQTIQHPPSNRASTETYSTPALLAPSESNATSTANFPNIPVASTSQPASILGGSHSEGLLQIASGPQPGQQQNGFTGQPATYHHNSTTTWTGSRTAPYTPNLPHHQNGHLQHHPPMPPHPGHYWPVHNELAFQPPISNHPAPEYWCSIAYFEMDVQVGETFKVPSSCPIVTVDGYVDPSGGDRFCLGQLSNVHRTEAIERARLHIGKGVQLECKGEGDVWVRCLSDHAVFVQSYYLDREAGRAPGDAVHKIYPSAYIKVFDLRQCHRQMQQQAATAQAAAAAQAAAVAGNIPGPGSVGGIAPAISLSAAAGIGVDDLRRLCILRMSFVKGWGPDYPRQSIKETPCWIEIHLHRALQLLDEVLHTMPIADPQPLD
Consider B3, for which the binding result in assay [3] is “binds”.

B4: Sirt1 clone from the human lung cDNA library in pMyr, Q96EB6 1-747 (protein)
chain: MADEAALALQPGGSPSAAGADREAASSPAGEPLRKRPRRDGPGLERSPGEPGGAAPEREVPAAARGCPGAAAAALWREAEAEAAAAGGEQEAQATAAAGEGDNGPGLQGPSREPPLADNLYDEDDDDEGEEEEEAAAAAIGYRDNLLFGDEIITNGFHSCESDEEDRASHASSSDWTPRPRIGPYTFVQQHLMIGTDPRTILKDLLPETIPPPELDDMTLWQIVINILSEPPKRKKRKDINTIEDAVKLLQECKKIIVLTGAGVSVSCGIPDFRSRDGIYARLAVDFPDLPDPQAMFDIEYFRKDPRPFFKFAKEIYPGQFQPSLCHKFIALSDKEGKLLRNYTQNIDTLEQVAGIQRIIQCHGSFATASCLICKYKVDCEAVRGDIFNQVVPRCPRCPADEPLAIMKPEIVFFGENLPEQFHRAMKYDKDEVDLLIVIGSSLKVRPVALIPSSIPHEVPQILINREPLPHLHFDVELLGDCDVIINELCHRLGGEYAKLCCNPVKLSEITEKPPRTQKELAYLSELPPTPLHVSEDSSSPERTSPPDSSVIVTLLDQAAKSNDDLDVSESKGCMEEKPQEVQTSRNVESIAEQMENPDLKNVGSSTGEKNERTSVAGTVRKCWPNRVAKEQISRRLDGNQYLFLPPNRYIFHGAEVYSDSEDDVLSSSSCGSNSDSGTCQSPSLEEPMEDESEIEEFYNGLEDEPDVPERAGGAGFGTDGDDQEAINEAISVKQEVTDMNYPSNKS
With B4, the binding result in assay [3] is “binds”.

B5: HA-Sirt1, Q96EB6 1-747 (protein)
chain: MADEAALALQPGGSPSAAGADREAASSPAGEPLRKRPRRDGPGLERSPGEPGGAAPEREVPAAARGCPGAAAAALWREAEAEAAAAGGEQEAQATAAAGEGDNGPGLQGPSREPPLADNLYDEDDDDEGEEEEEAAAAAIGYRDNLLFGDEIITNGFHSCESDEEDRASHASSSDWTPRPRIGPYTFVQQHLMIGTDPRTILKDLLPETIPPPELDDMTLWQIVINILSEPPKRKKRKDINTIEDAVKLLQECKKIIVLTGAGVSVSCGIPDFRSRDGIYARLAVDFPDLPDPQAMFDIEYFRKDPRPFFKFAKEIYPGQFQPSLCHKFIALSDKEGKLLRNYTQNIDTLEQVAGIQRIIQCHGSFATASCLICKYKVDCEAVRGDIFNQVVPRCPRCPADEPLAIMKPEIVFFGENLPEQFHRAMKYDKDEVDLLIVIGSSLKVRPVALIPSSIPHEVPQILINREPLPHLHFDVELLGDCDVIINELCHRLGGEYAKLCCNPVKLSEITEKPPRTQKELAYLSELPPTPLHVSEDSSSPERTSPPDSSVIVTLLDQAAKSNDDLDVSESKGCMEEKPQEVQTSRNVESIAEQMENPDLKNVGSSTGEKNERTSVAGTVRKCWPNRVAKEQISRRLDGNQYLFLPPNRYIFHGAEVYSDSEDDVLSSSSCGSNSDSGTCQSPSLEEPMEDESEIEEFYNGLEDEPDVPERAGGAGFGTDGDDQEAINEAISVKQEVTDMNYPSNKS
On to B5, for which the binding result in assay [4] and in assay [5] was “binds” in each case.
